Data taken from PubChem BioAssay AID1671190 (National Center for Advancing Translational Sciences (NCATS), 2021).
Hit rate of the full screen: of about 580,000 compounds, about 6,100 (1.1%) were called active. The inconclusive results got no clear call from the source; some entries with a clear call stand among them for comparison. The call rests on the fitted dose curve; in most records, active means well fitted inhibition curve with a large enough effect; inconclusive means small, poorly fitted or top-dose-only effect, or another doubt; inactive means no such curve, though single readings can be large or run the other way. A potency beside an inconclusive call is a rough fit, not a confirmed value.

Protein sequences, listed by entry. Tags and fused reporters are not part of them. Lines headed by an entry give the natural chain unless they say otherwise; changes in a name come on top.
UniProt P18054: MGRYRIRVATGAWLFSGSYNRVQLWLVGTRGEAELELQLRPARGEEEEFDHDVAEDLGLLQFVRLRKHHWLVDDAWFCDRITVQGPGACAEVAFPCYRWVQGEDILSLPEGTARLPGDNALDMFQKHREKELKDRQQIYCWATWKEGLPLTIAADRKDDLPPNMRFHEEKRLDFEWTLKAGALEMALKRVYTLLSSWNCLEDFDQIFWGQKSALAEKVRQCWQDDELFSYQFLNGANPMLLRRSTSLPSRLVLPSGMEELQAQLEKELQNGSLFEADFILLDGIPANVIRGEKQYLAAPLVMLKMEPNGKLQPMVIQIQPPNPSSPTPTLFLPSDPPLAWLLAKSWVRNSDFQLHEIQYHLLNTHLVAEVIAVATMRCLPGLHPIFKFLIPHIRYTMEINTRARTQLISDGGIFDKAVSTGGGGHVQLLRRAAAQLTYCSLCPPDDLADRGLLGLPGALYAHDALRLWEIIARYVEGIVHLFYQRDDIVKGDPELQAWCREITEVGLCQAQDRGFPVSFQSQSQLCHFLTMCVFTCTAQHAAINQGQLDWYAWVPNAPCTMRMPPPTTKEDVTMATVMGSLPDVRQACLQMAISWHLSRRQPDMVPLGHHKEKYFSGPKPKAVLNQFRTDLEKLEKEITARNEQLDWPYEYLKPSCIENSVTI

What follows are compounds tested against Polyunsaturated fatty acid lipoxygenase ALOX12 (Homo sapiens) (UniProt P18054) (assay: Primary qHTS assay for inhibitors of human arachidonate 12S-lipoxygenase (ALOX12): Round 2). Conditions: purified 12hLO, xylenol orange hydroperoxide absorbance; activity change, negative = inhibition: at 108 µM (top of the series) unless noted.
In short: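 Purified human 12hLO at 150 nM in 25 mM Hepes, 0.01% Triton X-100, pH 7.0, preincubated 15 min at room temperature with compound. Reaction started with 40 uM arachidonic acid, 30 min at room temperature. Hydroperoxide measured by Fe-xylenol orange, 573/405 nm absorbance ratio.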
On the % scale 0 is the no-effect control and ±100 the full control effect; potency means the concentration at half of the fitted maximal effect.

SMILES	Potency	activity change, negative = inhibition
CCCn1c(SCC(=O)c2ccc3c(c2)OCCO3)nnc1C(C)C	inconclusive: 39.8 µM [inhibitor, partial curve, poor fit]	–
CNC(=O)N1CCCC(c2nc(CCOCC3CCCC3)no2)C1 (configuration not stated)	inactive	–
C=CCN(C(=O)CCC(=O)Nc1cc(C)on1)C(C(=O)NC1CCCC1)c1ccc(OC)c(OC)c1 (configuration not stated)	inactive	–
COc1ccc(OCC(=O)N/N=C2\CCCc3ccccc32)cc1	inactive	–
Cc1cc(C)c(CNC(=O)c2nc(-c3ccc(CO)cc3)cc3c2ccn3C)c(=O)[nH]1	inconclusive: 28.2 µM [inhibitor, full curve, poor fit]	–
Cc1cccc(CNc2ccc(C(CC(N)=O)NC(=O)c3ccccc3)cc2[N+](=O)[O-])c1 (configuration not stated)	inconclusive: 89.1 µM [inhibitor, partial curve, poor fit]	–
CCCCCCCCCCCCC/C=C\[C@@H](O)[C@@H](N)CO	inconclusive: 28.2 µM [inhibitor, single point]	–
O=C(/C=C/c1ccc2ccccc2c1)c1ccccc1F	inactive	–
Clc1ccc(SCCCCN2CCNCC2)cc1	inconclusive: 6.31 µM [inhibitor, full curve]	–
Cc1cc(-c2ccccc2)c(C#N)c(=S)[nH]1	inconclusive: 39.8 µM [inhibitor, partial curve, poor fit]	–
Cc1cc(C(=O)Cn2cnc3ccccc3c2=O)c(C)n1C1CC1	inconclusive: 89.1 µM [inhibitor, single point]	–
O=C(/C=C/Nc1ccc([N+](=O)[O-])cc1)c1ccc(Br)cc1	inconclusive: 141 µM [inhibitor, partial curve, poor fit]	–
CCOc1ccc(/C=C/C(=O)c2cccc(O)c2)cc1	inconclusive: 63.1 µM [inhibitor, partial curve, poor fit]	–
O=C(/C=C/c1ccccc1)Nc1ccc2c(c1)C(=O)NC2=O	inconclusive: 100 µM [inhibitor, single point]	–
CCCN(CCC)CCNC(=O)COCc1cc(-c2cccs2)on1	inactive	–
CCN1C(C(=O)Nc2cc(C)on2)=C(O)c2ccccc2S1(=O)=O	inconclusive: 28.2 µM [inhibitor, single point]	–
Fc1ccc(-n2nnc(-c3cnc4ccccc4c3)n2)cc1	inconclusive: 112 µM [inhibitor, single point]	–
C=CCn1c(-c2ccc(Cl)cc2)ccc(C#N)c1=O	inconclusive: 100 µM [inhibitor, single point]	–
Cc1ccccc1CC(=O)NC1CCN(Cc2ccccc2)CC1	inconclusive: 6.31 µM [inhibitor, full curve, poor fit]	–
CN(Cc1ccco1)S(=O)(=O)c1cc(F)ccc1CN1C(=O)c2cccnc2C1=O	inconclusive: 100 µM [inhibitor, single point]	–
CCc1cc(C(=O)OC)c(NC(=O)CSc2nccn2C)s1	inconclusive: 31.6 µM [inhibitor, single point]	–
CCOc1cc(/C=C(\C#N)c2nc3ccccc3[nH]2)ccc1OC(C)C(=O)O (configuration not stated)	inactive	–
COc1ccc(-c2ccc(C(=O)Nc3cccc(F)c3)c3occc23)c(C)c1	inconclusive: 100 µM [inhibitor, single point]	–

Reprinted at random: 3 entries already listed
SMILES	Potency	activity change, negative = inhibition
COc1ccc(-c2ccc(C(=O)Nc3cccc(F)c3)c3occc23)c(C)c1	inconclusive: 100 µM [inhibitor, single point]	–
C=CCN(C(=O)CCC(=O)Nc1cc(C)on1)C(C(=O)NC1CCCC1)c1ccc(OC)c(OC)c1 (configuration not stated)	inactive	–
CCCN(CCC)CCNC(=O)COCc1cc(-c2cccs2)on1	inactive	–

Remaining list, next part.

SMILES	Potency	activity change, negative = inhibition
CCOC(=O)c1cccc(OCC(O)CNCCOc2ccccc2F)c1 (configuration not stated)	inconclusive: 0.562 µM [inhibitor, full curve, poor fit]	–
O=C(O)C[C@@H]1CCN(C(=O)Nc2ccc(OC(F)(F)F)cc2)C[C@@H]1CCN1CCOCC1	inactive	–
COc1ccc(C)cc1NC(=O)CCN1CCN(c2ccccc2F)CC1	–	inconclusive: -41.2% [inhibitor]
COc1ccc(-c2c(NC(=O)c3cccc([N+](=O)[O-])c3)oc3ccccc3c2=O)cc1OC	inconclusive: 35.5 µM [inhibitor, single point]	–
COC(=O)C1CN(Cc2ccccc2)CCS(=O)(=O)N1Cc1ccc(C)cc1 (configuration not stated)	inactive	–
Cc1nc(-c2cccc(NC(=O)N[C@H](C)c3onc(-c4ccc(F)cc4)c3C(=O)O)c2)no1	inconclusive: 20 µM [inhibitor, full curve]	–
CNC(=O)CC1CCOC2(CCN(S(=O)(=O)c3ccc(C#N)cc3)CC2)C1 (configuration not stated)	inactive	–
S=C1NCN(C2CCCCC2)CN1c1ccccc1	inconclusive: 89.1 µM [inhibitor, single point]	–
COc1ccc(NC(=O)N(C)C[C@H]2OCCCC[C@@H](C)Oc3ccc(N(C)C)cc3C(=O)N([C@H](C)CO)C[C@@H]2C)cc1	inconclusive: 112 µM [inhibitor, single point]	–
OC1(c2ccc(OC(F)F)cc2)CSC(=Nc2cccnc2)N1Cc1ccco1 (configuration not stated)	inactive	–
CCCCOc1cccc(C(=O)N(Cc2ccc(Br)o2)C2CCS(=O)(=O)C2)c1 (configuration not stated)	inactive	–
O=C(NCCc1ccccn1)c1ccnc(-c2nnc3ccc(N4CCOCC4)nn23)c1	inactive	–
Cc1cccc(C(=O)Nc2ccc(C(=O)OCc3cc(=O)n4c(C)csc4n3)cc2)c1	inconclusive: 56.2 µM [inhibitor, partial curve, poor fit]	–
NC(=O)CSc1oc(-c2cccs2)nc1S(=O)(=O)c1ccc(Br)cc1	inconclusive: 56.2 µM [inhibitor, partial curve, poor fit]	–
CCOC(=O)c1sc(=S)n(-c2ccc(C)cc2)c1N	inconclusive: 70.8 µM [inhibitor, partial curve, poor fit]	–
CCOC(=O)C1CCCN(C2=NC(=O)/C(=C/c3ccc(O)c(OC)c3)S2)C1 (configuration not stated)	inconclusive: 56.2 µM [inhibitor, partial curve, poor fit]	–
COCCN1Cc2[nH]nc(-c3ccc(OC)c(F)c3)c2CC1=O	inconclusive: 2.82 µM [inhibitor, full curve, poor fit]	–
O=C(/C=C/c1c(Cl)cccc1Cl)NCCc1ccccc1	inactive	–
CN(C)c1nc(-c2ccncc2)nc2c1CCN(C(=O)c1ccn[nH]1)C2	inactive	–
CC(=O)c1ccc2c(c1)N(C)c1ccccc1S2	inconclusive: 56.2 µM [inhibitor, partial curve, poor fit]	–
C[C@@H](NC(=O)C1CCOCC1)c1onc(-c2ccc(Cl)cc2)c1C(=O)O	inactive	–
COC(=O)c1ccc(NC(=O)N2CCN(c3nnc(C)c4c(C)n(-c5ccccc5)nc34)CC2)cc1	inconclusive: 100 µM [inhibitor, partial curve, poor fit]	–
COc1ccccc1-c1ccc2n(c1=O)C[C@@H]1[C@@H](CO)[C@H](C(=O)NCCCN(C)C)N(C(C)=O)[C@H]21	inconclusive: 100 µM [inhibitor, partial curve, poor fit]	–

SMILES	Potency	activity change, negative = inhibition
CCc1nnc(NC(=O)CCC(=O)N2CCN(c3ccccn3)CC2)s1	inactive	–
COC(=O)c1cn(CC(=O)Nc2ccc(C)c(C)c2)c2ccccc12	inactive	–
Cc1cc(NC(=O)CSc2nc(Nc3ccccc3)c3ccccc3n2)no1	inactive	–
Cc1ccc(NC(CC(=O)c2ccccc2)C(=O)O)cc1Cl (configuration not stated)	inconclusive: 10 µM [inhibitor, full curve, poor fit]	–
COc1cc(/C=N/n2c(-c3ccccc3)n[nH]c2=S)cc(OC)c1O	inconclusive: 50.1 µM [inhibitor, partial curve, poor fit]	–
C[C@@]12CCCO[C@@]13C=CC(=O)C=C3CCC2	inconclusive: 44.7 µM [inhibitor, partial curve]	–
CCN1C(=O)[C@H]2[C@@H](c3ccc(SC4CCCCC4)cc3)N[C@@](CC(C)C)(C(=O)OC)[C@H]2C1=O	inactive	–
CSc1cccc(NC(=O)C2CCN(c3cnc4nccnc4c3)CC2)c1	inconclusive: 56.2 µM [inhibitor, partial curve, poor fit]	–
O=C1Cc2c(-c3ccccc3OCc3ccccc3)n[nH]c2CN1CC1CCOCC1	inconclusive: 39.8 µM [inhibitor, partial curve]	–
Cc1ccccc1-n1cc(CNC(=O)CN2Cc3ccccc3OC(C)C2)cn1 (configuration not stated)	inconclusive: 89.1 µM [inhibitor, single point]	–
COc1ccc(N2CCN(C(=O)CSc3nnc(-c4cccnc4)n3-c3ccc(F)cc3)CC2)cc1	inactive	–
CCc1c(C)sc(NC(=O)C(F)(F)C(F)(F)C(F)(F)F)c1C#N	inconclusive: 35.5 µM [inhibitor, partial curve, poor fit]	–
Cc1ccc(S(=O)(=O)N2CCN(C(=O)Cc3ccsc3)CC2)c(C)c1	inconclusive: 79.4 µM [inhibitor, single point]	–
COc1ccc(OC)c(-n2c(C)nc3cc(C(=O)O)ccc32)c1	inconclusive: 22.4 µM [inhibitor, single point]	–
CCCc1nc2ccc(C)cn2c1Cc1ccccc1C(F)(F)F	inconclusive: 20 µM [inhibitor, partial curve]	–
O=S(=O)(Nc1cc(S(=O)(=O)N2CCOCC2)ccc1O)c1ccc2c(c1)OCCCO2	inconclusive: 50.1 µM [inhibitor, partial curve, poor fit]	–
CCOC(=O)c1ccc(N2C(=O)CC(N3CCCC(C)C3)C2=O)cc1 (configuration not stated)	inactive	–
N#Cc1c(N)sc2c1CCC2	inconclusive: 44.7 µM [inhibitor, partial curve, poor fit]	–
O=C(CCS(=O)CCC(=O)NCc1ccccc1)NCc1ccccc1	inactive	–
Cc1n[nH]c(=O)c2c(NC(=O)CSc3ccc(Br)cc3)oc(C)c12	inconclusive: 79.4 µM [inhibitor, partial curve, poor fit]	–
O=C1Nc2ccc(-c3ccccc3F)cc2C(=O)N2CCN(C(=O)c3cccs3)C[C@H]12	inconclusive: 39.8 µM [inhibitor, partial curve, poor fit]	–

Some of these compounds in order of molar mass, smallest number first:
SMILES	Potency	activity change, negative = inhibition
COc1ccc(OC)c(-n2c(C)nc3cc(C(=O)O)ccc32)c1	inconclusive: 22.4 µM [inhibitor, single point]	–
CCc1c(C)sc(NC(=O)C(F)(F)C(F)(F)C(F)(F)F)c1C#N	inconclusive: 35.5 µM [inhibitor, partial curve, poor fit]	–
COc1ccc(N2CCN(C(=O)CSc3nnc(-c4cccnc4)n3-c3ccc(F)cc3)CC2)cc1	inactive	–
